Source: the supplement of paper PMC10849652
Some of the results follow.

Sequences of proteins named here, by UniProt entry; tags and fusion partners are left off. A change or cut given only in a name is not applied to a line headed by its entry.
UniProt Q9UBE0: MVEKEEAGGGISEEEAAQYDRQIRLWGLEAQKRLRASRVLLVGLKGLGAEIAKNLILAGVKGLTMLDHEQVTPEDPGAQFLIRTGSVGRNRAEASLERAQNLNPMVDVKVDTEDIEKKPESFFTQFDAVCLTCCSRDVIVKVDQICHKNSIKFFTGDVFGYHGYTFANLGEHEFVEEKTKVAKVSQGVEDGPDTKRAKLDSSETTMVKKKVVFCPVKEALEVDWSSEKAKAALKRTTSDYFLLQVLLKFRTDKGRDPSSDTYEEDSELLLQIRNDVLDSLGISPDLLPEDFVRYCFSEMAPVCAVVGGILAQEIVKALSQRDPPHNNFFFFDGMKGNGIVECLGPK
UniProt Q9BY50: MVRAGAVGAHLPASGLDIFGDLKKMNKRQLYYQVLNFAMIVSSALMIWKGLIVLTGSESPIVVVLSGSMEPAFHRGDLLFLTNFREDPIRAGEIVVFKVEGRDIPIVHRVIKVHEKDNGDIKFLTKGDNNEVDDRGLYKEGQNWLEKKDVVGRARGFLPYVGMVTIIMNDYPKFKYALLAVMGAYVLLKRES
UniProt Q15437: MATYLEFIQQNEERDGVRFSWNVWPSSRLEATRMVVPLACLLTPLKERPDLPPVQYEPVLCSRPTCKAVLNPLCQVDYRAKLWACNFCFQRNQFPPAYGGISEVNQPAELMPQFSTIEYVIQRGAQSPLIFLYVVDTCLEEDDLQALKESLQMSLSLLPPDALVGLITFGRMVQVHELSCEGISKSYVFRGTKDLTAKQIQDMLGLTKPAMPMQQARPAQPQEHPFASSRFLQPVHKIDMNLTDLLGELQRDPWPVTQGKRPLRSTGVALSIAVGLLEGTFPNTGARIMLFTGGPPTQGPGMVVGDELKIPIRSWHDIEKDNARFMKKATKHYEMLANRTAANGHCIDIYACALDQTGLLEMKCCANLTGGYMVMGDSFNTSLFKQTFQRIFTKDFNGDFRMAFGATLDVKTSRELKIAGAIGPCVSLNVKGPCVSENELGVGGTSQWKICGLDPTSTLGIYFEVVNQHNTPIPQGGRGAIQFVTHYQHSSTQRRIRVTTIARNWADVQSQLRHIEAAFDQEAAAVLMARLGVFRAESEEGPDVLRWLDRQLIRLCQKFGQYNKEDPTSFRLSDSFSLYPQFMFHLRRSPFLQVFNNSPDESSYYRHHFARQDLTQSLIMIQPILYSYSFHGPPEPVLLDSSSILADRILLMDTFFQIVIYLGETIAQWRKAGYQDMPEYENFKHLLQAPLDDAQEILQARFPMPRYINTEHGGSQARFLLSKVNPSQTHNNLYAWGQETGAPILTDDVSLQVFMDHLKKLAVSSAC
UniProt O95104: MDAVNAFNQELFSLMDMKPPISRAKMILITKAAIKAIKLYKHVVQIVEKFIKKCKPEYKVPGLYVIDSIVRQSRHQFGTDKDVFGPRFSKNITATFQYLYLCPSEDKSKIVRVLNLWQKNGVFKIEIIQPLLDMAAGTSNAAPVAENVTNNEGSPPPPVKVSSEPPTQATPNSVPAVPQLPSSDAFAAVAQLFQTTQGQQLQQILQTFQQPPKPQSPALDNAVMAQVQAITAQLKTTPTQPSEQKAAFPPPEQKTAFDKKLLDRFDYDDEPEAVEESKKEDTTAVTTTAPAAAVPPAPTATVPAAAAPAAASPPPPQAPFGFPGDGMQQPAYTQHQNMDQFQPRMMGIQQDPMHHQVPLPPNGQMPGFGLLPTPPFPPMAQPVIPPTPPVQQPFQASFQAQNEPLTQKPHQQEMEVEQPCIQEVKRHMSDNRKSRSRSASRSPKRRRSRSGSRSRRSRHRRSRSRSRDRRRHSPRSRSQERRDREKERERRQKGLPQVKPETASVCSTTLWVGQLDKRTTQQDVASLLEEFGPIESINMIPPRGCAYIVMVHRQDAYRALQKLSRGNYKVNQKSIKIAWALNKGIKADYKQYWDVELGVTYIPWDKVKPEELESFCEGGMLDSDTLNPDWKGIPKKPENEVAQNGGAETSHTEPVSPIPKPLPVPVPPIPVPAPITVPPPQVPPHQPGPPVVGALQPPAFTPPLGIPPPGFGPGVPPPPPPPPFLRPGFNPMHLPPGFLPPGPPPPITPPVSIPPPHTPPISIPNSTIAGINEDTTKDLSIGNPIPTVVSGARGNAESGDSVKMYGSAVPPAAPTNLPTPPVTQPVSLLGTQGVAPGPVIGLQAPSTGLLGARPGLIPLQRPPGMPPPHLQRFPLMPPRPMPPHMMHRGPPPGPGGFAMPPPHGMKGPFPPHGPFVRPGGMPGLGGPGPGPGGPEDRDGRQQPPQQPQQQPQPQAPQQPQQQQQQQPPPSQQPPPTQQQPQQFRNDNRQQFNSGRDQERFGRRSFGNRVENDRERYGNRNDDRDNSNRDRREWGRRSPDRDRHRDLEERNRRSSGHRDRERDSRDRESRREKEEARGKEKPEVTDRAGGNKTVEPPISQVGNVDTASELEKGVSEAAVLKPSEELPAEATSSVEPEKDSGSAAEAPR
UniProt O00422: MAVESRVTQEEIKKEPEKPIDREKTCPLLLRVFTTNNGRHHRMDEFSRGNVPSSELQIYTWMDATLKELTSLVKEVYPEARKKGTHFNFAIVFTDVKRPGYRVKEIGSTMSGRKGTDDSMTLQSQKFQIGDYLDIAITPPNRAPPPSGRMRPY
UniProt Q15424: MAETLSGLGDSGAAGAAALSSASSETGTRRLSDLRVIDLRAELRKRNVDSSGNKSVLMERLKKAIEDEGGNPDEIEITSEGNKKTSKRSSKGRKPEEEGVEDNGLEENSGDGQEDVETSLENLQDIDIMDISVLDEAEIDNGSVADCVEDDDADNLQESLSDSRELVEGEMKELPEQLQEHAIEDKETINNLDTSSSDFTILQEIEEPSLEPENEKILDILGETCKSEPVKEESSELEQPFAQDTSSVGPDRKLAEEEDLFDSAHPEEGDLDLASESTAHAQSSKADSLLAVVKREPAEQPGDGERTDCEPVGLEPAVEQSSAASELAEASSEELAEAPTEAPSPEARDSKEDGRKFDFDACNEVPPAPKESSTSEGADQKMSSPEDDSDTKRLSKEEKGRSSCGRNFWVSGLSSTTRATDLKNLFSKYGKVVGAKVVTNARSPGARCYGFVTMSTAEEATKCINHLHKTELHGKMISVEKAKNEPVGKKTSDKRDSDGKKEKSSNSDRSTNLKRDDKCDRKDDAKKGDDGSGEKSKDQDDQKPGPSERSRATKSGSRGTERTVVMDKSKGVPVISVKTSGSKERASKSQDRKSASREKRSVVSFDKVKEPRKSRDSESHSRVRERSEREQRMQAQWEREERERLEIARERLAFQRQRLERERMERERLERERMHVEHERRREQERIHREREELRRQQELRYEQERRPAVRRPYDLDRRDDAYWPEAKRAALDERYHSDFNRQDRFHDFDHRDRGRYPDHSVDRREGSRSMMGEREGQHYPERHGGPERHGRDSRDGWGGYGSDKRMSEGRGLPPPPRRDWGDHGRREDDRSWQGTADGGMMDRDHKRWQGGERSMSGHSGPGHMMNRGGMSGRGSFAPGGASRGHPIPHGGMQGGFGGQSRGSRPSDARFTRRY
UniProt Q6P3W7: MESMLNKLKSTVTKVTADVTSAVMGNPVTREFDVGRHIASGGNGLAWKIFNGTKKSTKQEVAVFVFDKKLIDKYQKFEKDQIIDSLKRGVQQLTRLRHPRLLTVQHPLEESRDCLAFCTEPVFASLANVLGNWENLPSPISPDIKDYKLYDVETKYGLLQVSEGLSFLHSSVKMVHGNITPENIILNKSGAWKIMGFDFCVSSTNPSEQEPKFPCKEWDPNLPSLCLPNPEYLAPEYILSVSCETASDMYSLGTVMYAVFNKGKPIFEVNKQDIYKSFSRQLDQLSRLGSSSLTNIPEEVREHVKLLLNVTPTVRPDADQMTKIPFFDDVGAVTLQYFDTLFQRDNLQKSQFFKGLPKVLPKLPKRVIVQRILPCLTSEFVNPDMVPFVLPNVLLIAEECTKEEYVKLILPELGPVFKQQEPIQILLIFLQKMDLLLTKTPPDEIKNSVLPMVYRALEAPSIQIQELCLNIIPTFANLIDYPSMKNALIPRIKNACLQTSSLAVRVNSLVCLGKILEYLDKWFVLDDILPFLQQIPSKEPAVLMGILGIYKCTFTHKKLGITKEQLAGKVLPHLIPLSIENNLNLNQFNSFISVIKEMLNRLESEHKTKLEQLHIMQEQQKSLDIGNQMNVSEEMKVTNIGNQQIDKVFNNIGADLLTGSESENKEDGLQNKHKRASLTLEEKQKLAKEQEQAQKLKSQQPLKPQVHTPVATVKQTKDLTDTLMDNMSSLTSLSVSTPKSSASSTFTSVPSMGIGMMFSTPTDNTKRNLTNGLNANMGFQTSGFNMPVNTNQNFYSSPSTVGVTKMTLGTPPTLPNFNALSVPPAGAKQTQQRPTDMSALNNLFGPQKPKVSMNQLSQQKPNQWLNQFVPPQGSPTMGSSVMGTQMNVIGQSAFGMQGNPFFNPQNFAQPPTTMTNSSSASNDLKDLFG
UniProt Q6IQ49: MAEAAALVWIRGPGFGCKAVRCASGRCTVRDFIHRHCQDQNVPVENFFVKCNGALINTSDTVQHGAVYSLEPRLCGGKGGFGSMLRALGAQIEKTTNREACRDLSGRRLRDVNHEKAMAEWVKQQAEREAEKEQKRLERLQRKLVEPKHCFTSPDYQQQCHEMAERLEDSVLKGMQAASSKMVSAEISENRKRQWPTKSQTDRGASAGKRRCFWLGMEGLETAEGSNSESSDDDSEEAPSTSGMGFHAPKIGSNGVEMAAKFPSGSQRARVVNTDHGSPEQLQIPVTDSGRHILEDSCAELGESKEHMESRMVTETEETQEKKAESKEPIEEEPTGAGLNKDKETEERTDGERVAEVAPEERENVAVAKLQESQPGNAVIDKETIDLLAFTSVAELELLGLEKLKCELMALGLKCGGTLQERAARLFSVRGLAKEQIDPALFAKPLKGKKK
UniProt O95197: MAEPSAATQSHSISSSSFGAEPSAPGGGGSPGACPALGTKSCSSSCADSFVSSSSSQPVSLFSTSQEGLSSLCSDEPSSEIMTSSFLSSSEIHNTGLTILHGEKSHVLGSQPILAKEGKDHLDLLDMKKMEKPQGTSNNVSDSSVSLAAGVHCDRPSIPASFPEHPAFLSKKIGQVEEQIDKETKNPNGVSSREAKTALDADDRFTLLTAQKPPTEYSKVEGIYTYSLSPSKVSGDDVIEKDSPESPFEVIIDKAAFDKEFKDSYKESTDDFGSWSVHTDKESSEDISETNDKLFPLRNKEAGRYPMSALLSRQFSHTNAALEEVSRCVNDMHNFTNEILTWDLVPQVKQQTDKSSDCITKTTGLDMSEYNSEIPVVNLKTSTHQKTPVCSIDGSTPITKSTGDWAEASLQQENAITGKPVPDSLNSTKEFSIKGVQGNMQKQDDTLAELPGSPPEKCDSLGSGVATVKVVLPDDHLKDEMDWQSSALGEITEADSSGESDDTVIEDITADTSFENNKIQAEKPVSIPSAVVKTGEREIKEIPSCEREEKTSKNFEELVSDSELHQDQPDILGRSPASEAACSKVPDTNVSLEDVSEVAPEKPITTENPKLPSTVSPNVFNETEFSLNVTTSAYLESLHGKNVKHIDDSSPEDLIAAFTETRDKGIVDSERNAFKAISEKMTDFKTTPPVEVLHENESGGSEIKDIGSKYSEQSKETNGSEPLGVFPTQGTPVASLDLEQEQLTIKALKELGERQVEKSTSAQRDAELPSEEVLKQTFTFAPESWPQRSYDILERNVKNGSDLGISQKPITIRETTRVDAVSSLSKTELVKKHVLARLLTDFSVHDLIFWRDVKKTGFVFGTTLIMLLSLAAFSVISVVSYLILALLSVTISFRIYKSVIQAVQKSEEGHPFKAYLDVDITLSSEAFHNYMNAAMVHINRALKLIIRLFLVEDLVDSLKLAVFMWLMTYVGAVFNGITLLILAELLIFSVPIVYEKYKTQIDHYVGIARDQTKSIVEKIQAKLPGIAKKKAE
UniProt Q8WVM8, whole entry, looked up: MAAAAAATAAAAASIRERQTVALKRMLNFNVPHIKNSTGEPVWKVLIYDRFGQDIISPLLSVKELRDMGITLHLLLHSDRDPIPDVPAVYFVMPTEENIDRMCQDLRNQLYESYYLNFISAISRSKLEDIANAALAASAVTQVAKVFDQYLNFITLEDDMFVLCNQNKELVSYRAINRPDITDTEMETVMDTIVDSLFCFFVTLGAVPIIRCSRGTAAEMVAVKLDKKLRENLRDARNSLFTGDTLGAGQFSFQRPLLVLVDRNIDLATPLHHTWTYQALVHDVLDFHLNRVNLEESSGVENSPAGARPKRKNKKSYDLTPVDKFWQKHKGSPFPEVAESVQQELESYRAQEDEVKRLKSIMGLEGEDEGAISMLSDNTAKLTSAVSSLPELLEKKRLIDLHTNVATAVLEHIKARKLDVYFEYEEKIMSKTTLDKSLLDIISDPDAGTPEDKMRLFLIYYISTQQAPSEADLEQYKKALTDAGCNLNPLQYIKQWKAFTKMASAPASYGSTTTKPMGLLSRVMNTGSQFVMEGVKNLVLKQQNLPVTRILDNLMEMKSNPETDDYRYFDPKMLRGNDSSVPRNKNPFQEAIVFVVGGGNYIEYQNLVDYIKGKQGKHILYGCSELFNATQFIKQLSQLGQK

Assays:
Assay in all cases: log2 fold change, soluble protein after heating vs DMSO (PISA); higher = thermal stabilisation; K562 cells, 10 uM, 30 min; active = over 0.2 and 3.5 SD of the protein, either way, in both replicates (recomputed)
[1] = compound: CS(=O)(=O)c1ccc(-c2cnc(N)c(C(=O)Nc3ccccc3)n2)cc1
How it was run: (§1)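 Values are thermal stability changes relative to control samples and are taken from duplicates. They are stated as log2 fold changes. Before quantification by TMTpro 16plex LC-MS/MS with equalised channel sums, K562 cells at 2×10^6 cells/mL were treated with 10 μM compound for 30 min, heated in aliquots for 3 min across 48°C-58°C, pooled, extracted in PBS with 0.5% NP-40 at 4°C, and centrifuged at 21,000xg for 90 min to give the soluble supernatant.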

crizotinib = compound: C[C@@H](Oc1cc(-c2cnn(C3CCNCC3)c2)cnc1N)c1c(Cl)ccc(F)c1Cl [crizotinib]
How it was run: as §1

[2] = compound: C[C@@H]1COCCN1C2=NC(=NC(=C2)C3(CC3)S(=O)(=O)C)C4=C5C=CNC5=CC=C4
How it was run: as §1

[3] = compound: C[C@H](C1=CC=C(C=C1)C(=O)NC2=C3C=CNC3=NC=C2)N
How it was run: as §1

duvelisib = compound: C[C@H](Nc1ncnc2nc[nH]c12)c1cc2cccc(Cl)c2c(=O)n1-c1ccccc1 [duvelisib]
How it was run: as §1

gandotinib = compound: Cc1cc(Nc2cc(CN3CCOCC3)c3nc(C)c(Cc4ccc(Cl)cc4F)n3n2)n[nH]1 [gandotinib]
How it was run: as §1

tozasertib = compound: Cc1cc(Nc2cc(N3CCN(C)CC3)nc(Sc3ccc(NC(=O)C4CC4)cc3)n2)n[nH]1 [tozasertib]
How it was run: as §1

[4] = compound: Cc1cc(SCc2sc(-c3ccc(C(F)(F)F)cc3)nc2C)ccc1OCC(=O)O
How it was run: as §1

doramapimod = compound: Cc1ccc(-n2nc(C(C)(C)C)cc2NC(=O)Nc2ccc(OCCN3CCOCC3)c3ccccc23)cc1 [doramapimod]
How it was run: as §1

ispinesib = compound: Cc1ccc(C(=O)N(CCCN)[C@@H](c2nc3cc(Cl)ccc3c(=O)n2Cc2ccccc2)C(C)C)cc1 [ispinesib]
How it was run: as §1

Measured: log2 fold change

SDHAF3 (UniProt Q9NRP4)
inactive: [1] -0.03 | crizotinib -0.052 | [2] 0.031 | [3] -0.085 | duvelisib 0.183 | gandotinib -0.082 | tozasertib -0.035 | [4] -0.011 | doramapimod -0.019 | ispinesib -0.171

SAMM50 (UniProt Q9Y512)
inactive: [1] 0.015 | crizotinib 0.042 | [2] -0.023 | [3] -0.06 | duvelisib -0.003 | gandotinib -0.029 | tozasertib 0.008 | [4] -0.023 | doramapimod -0.037 | ispinesib -0.006

SAE1 (UniProt Q9UBE0)
inactive: [1] 0.05 | crizotinib 0.093 | [2] 0.032 | [3] -0.059 | duvelisib 0 | gandotinib -0.043 | tozasertib 0.073 | [4] 0.034 | doramapimod -0.054 | ispinesib 0.097

SEC11C (UniProt Q9BY50)
inactive: [1] -0.084 | crizotinib -0.114 | [2] 0.062 | [3] -0.012 | duvelisib -0.02 | gandotinib -0.039 | tozasertib -0.04 | [4] -0.085 | doramapimod -0.022 | ispinesib -0.109

RSU1 (UniProt Q15404)
inactive: [1] 0.026 | crizotinib 0.044 | [2] 0.026 | [3] -0.028 | duvelisib 0.053 | gandotinib 0 | tozasertib -0.02 | [4] -0.012 | doramapimod -0.014 | ispinesib -0.017

SEC23B (UniProt Q15437)
inactive: [1] -0.008 | crizotinib 0.05 | [2] 0.027 | [3] -0.035 | duvelisib 0.04 | gandotinib -0.027 | tozasertib 0.015 | [4] 0.048 | doramapimod -0.011 | ispinesib 0.068

SCLY (UniProt Q96I15)
inactive: [1] 0.022 | crizotinib -0.006 | [2] 0.034 | [3] -0.092 | duvelisib 0.047 | gandotinib 0.072 | tozasertib -0.018 | [4] -0.051 | doramapimod 0.015 | ispinesib 0.042

SEC22B (UniProt O75396)
inactive: [1] 0.006 | crizotinib 0.071 | [2] 0.04 | [3] -0.076 | duvelisib 0.033 | gandotinib -0.068 | tozasertib 0.011 | [4] 0.037 | doramapimod 0 | ispinesib 0.186

SCAF4 (UniProt O95104)
inactive: [1] -0.008 | crizotinib 0 | [2] 0.038 | [3] 0.062 | duvelisib -0.086 | gandotinib -0.022 | tozasertib -0.047 | [4] 0.171 | doramapimod 0.101

SEC24B isoform 3 (UniProt O95487)
inactive: [1] 0.003 | crizotinib -0.046 | [2] -0.135 | [3] 0.073 | duvelisib -0.048 | gandotinib -0.009 | tozasertib 0.076 | [4] 0.075 | doramapimod 0.088 | ispinesib -0.011

SAP18 isoform 2 (UniProt O00422)
inactive: [1] -0.171 | crizotinib -0.096 | [2] -0.114 | [3] 0.176 | duvelisib -0.036 | gandotinib 0.096 | tozasertib 0.028 | [4] -0.002 | doramapimod 0.039 | ispinesib -0.123

SAFB isoform 3 (UniProt Q15424)
inactive: [1] 0.026 | crizotinib -0.042 | [2] -0.229 | [3] 0.025 | duvelisib -0.078 | gandotinib 0.24 | tozasertib -0.096 | [4] -0.046 | doramapimod 0.037 | ispinesib 0.04

SCYL2 (UniProt Q6P3W7)
inactive: [1] -0.033 | crizotinib -0.054 | [2] 0.043 | [3] -0.022 | duvelisib 0.035 | gandotinib -0.115 | tozasertib -0.001 | [4] -0.02 | doramapimod 0.011 | ispinesib 0.018

SCAF1 (UniProt Q9H7N4)
inactive: [1] 0.034

SCFD2 (UniProt Q8WU76)
inactive: [1] 0.034 | crizotinib -0.103 | [2] 0.111 | [3] 0.121 | duvelisib -0.066 | gandotinib -0.129 | tozasertib 0.148 | [4] 0.058 | doramapimod -0.005 | ispinesib -0.196

RWDD1 (UniProt Q9H446)
inactive: [1] 0.05 | crizotinib 0.084 | [2] 0.03 | [3] -0.072 | duvelisib 0.041 | gandotinib -0.047 | tozasertib 0.036 | [4] -0.047 | doramapimod -0.005 | ispinesib 0.068

RWDD3 (UniProt Q9Y3V2)
inactive: [1] 0.076

SEC24C (UniProt P53992)
inactive: [1] 0.013 | crizotinib 0.026 | [2] 0.05 | [3] 0.012 | duvelisib 0.042 | gandotinib -0.171 | tozasertib 0.018 | [4] 0.069 | doramapimod 0.005 | ispinesib 0.04

SDE2 (UniProt Q6IQ49)
inactive: [1] 0.011 | crizotinib 0.049 | [2] -0.01 | [3] 0.145 | duvelisib 0.077 | gandotinib -0.022 | tozasertib 0.056 | [4] -0.061 | doramapimod -0.014 | ispinesib 0.018

SASS6 (UniProt Q6UVJ0)
inactive: [1] 0.092 | crizotinib 0.004 | [2] -0.021 | [3] 0.061 | duvelisib -0.143 | gandotinib -0.169 | tozasertib -0.056 | [4] 0.022 | doramapimod 0.066 | ispinesib -0.126

RTRAF (UniProt Q9Y224)
inactive: [1] -0.026 | crizotinib 0.04 | [2] -0.115 | [3] 0.179 | duvelisib -0.103 | gandotinib 0.013 | tozasertib 0.043 | [4] -0.007 | doramapimod 0.106 | ispinesib -0.126

RTN4 (UniProt Q9NQC3)
inactive: [1] -0.023 | crizotinib 0.013 | [2] 0.002 | [3] -0.036 | duvelisib 0.06 | gandotinib -0.071 | tozasertib -0.013 | [4] -0.042 | doramapimod 0.001 | ispinesib -0.008

RTN3 (UniProt O95197)
inactive: [1] 0.055 | crizotinib 0.029 | [2] 0.022 | [3] -0.034 | duvelisib 0.111 | gandotinib -0.025 | tozasertib -0.02 | [4] 0.039 | doramapimod -0.008 | ispinesib 0.02

SCP2 (UniProt P22307)
inactive: [1] 0.033 | crizotinib 0.046 | [2] 0.047 | [3] -0.028 | duvelisib 0.045 | gandotinib -0.012 | tozasertib -0.01 | [4] -0.01 | doramapimod 0.04 | ispinesib -0.03

SCARB1 isoform 2 (UniProt Q8WTV0)
inactive: [1] 0.058 | crizotinib -0.012 | [2] 0.046 | [3] -0.085 | duvelisib 0.093 | gandotinib -0.032 | tozasertib -0.012 | [4] 0.037 | doramapimod -0.035 | ispinesib 0.037

SCFD1 (UniProt Q8WVM8)
inactive: [1] 0.009 | crizotinib -0.049 | [2] 0.033 | [3] 0.034 | duvelisib 0.026 | gandotinib -0.075 | tozasertib 0.009 | [4] 0.097 | doramapimod -0.034 | ispinesib -0.003

RUVBL1 (UniProt Q9Y265)
inactive: [1] 0.046 | crizotinib 0.114 | [2] -0.02 | [3] -0.016 | duvelisib 0.02 | gandotinib 0.036 | tozasertib -0.006 | [4] -0.072 | doramapimod -0.002 | ispinesib 0.098

SACS (UniProt Q9NZJ4)
inactive: [1] -0.041 | crizotinib 0.037 | [2] 0.185 | [3] -0.115 | duvelisib 0.093 | gandotinib 0.022 | tozasertib -0.001 | [4] 0.085 | doramapimod 0.011 | ispinesib -0.022

SBDS (UniProt Q9Y3A5)
inactive: [1] 0.057 | crizotinib -0.064 | [2] 0.11 | [3] -0.015 | duvelisib 0.02 | gandotinib -0.104 | tozasertib -0.023 | [4] 0.072 | doramapimod -0.039 | ispinesib -0.018

S100A13 (UniProt Q99584)
inactive: [1] 0.018 | crizotinib -0.065 | [2] 0.067 | [3] -0.048 | duvelisib 0.044 | gandotinib -0.052 | tozasertib -0.016 | [4] -0.001 | doramapimod -0.002 | ispinesib -0.023

S100A11 (UniProt P31949)
inactive: [1] 0.033 | crizotinib 0.191 | [2] 0.089 | [3] -0.072 | duvelisib 0.056 | gandotinib 0.079 | tozasertib 0.035 | [4] 0.002 | doramapimod -0.02 | ispinesib 0.184
